Read-outs that look alike come from different tables or passages of the source.
Columns and labels:
[1] = Solubility and drug retention in surgical lubricant/surfactant mixture; details: 0.6 mL Polysorbate 20 in 19.4 mL lubricant, each component
Method: A commercially available surgical lubricant (SURGILUBE® lubricant) was combined with a surfactant. The surfactant was Polysorbate 20, and 0.6 mL of the Polysorbate 20 was added to 19.4 mL of the surgical lubricant.
However, more surfactant may be added to increase drug concentration, e.g., up to about 500 μM.

hUSMCs = details: for Percentages of Cells that Remained Contracted After Treatment: ROCK 0 μM

Compound: COC(=O)C1=C(C)NC(C)=C(C(=O)OC)C1c1ccccc1[N+](=O)[O-] [Nifedipine]
- actual drug retention in the surgical lubricant/surfactant mixture [1]: about 200 μM
- relaxation (hUSMCs; 25 μM alone, 8 hour exposure): 45%
- Percentages of Cells that Remained Contracted After Treatment (hUSMCs; Nifedipine 1.56 μM): 99%
- Percentages of Cells that Remained Contracted After Treatment (hUSMCs; Nifedipine 6.25 μM): 101%
- Percentages of Cells that Remained Contracted After Treatment (hUSMCs; Nifedipine 12.50 μM): 100%
- Percentages of Cells that Remained Contracted After Treatment (hUSMCs; Nifedipine 25.00 μM): 55%

Source: patent US12109301B2, “Formulations, methods, and systems for treating genitourinary conditions” (Massachusetts Institute of Technology, priority 2017, dated 2024)
